Measured values taken from the supplement of paper PMC9015667.
Structures can show the parent of a compound that is named as a salt. Some of the results follow. Single values are uncertain, as repeats are few or missing.

How the values were obtained:
Experiment in all cases: reduction in cell viability relative to untreated/vehicle; higher = more growth inhibition
Conditions in all cases: 200 nM; 72 h
M229P = system: M229P (parental melanoma line)
M229R = system: M229R (matched melanoma line resistant to BRAF inhibitors)
M238P = system: M238P (parental melanoma line)
M238R = system: M238R (matched melanoma line resistant to BRAF inhibitors)
M249P = system: M249P (parental melanoma line)
M249R = system: M249R (matched melanoma line resistant to BRAF inhibitors)
UACC62P = system: UACC62P (parental melanoma line)
UACC62R = system: UACC62R (matched melanoma line resistant to BRAF inhibitors)

Measured: reduction in cell viability

Clc1ccc2c(N3CCN(CCCN4CCN(c5ccnc6cc(Cl)ccc56)CC4)CC3)ccnc2c1 [Piperaquine]
< 0%: all assays above

CC[C@@H]([C@H](C)O)n1ncn(-c2ccc(N3CCN(c4ccc(OC[C@@H]5CO[C@@](Cn6cncn6)(c6ccc(F)cc6F)C5)cc4)CC3)cc2)c1=O [Posaconazole]
8.4%: M238P
11%: M238R
0.25%: UACC62P
14.6%: UACC62R
12.3%: M249P
< 0%: all other assays above

O=C(CO)N1CCC(c2n[nH]c(-c3ccc(Cl)cc3)c2-c2ccncn2)CC1
< 0%: all assays above

CC(=O)OCC(=O)[C@@]1(O)CC[C@H]2[C@@H]3CCC4=CC(=O)C=C[C@]4(C)[C@H]3[C@@H](O)C[C@@]21C [Prednisolone acetate]
< 0%: all assays above

CCc1cc(C(N)=S)ccn1 [Ethionamide]
1.91%: UACC62P
4.45%: M249P
< 0%: all other assays above

CN(C)[C@@H](CCOc1cccc2ccccc12)c1ccccc1 [Dapoxetine hydrochloride]
1.36%: UACC62P
< 0%: all other assays above

CN1N=C(N)c2cn([C@@H]3O[C@H](COP(=O)(O)O)[C@@H](O)[C@H]3O)c3ncnc1c23 [Triciribine phosphate]
14.3%: M229R
< 0%: all other assays above

C[C@@H]1C[C@H]2[C@@H]3CCC4=CC(=O)C=C[C@]4(C)[C@@]3(Cl)[C@@H](O)C[C@]2(C)[C@@]1(OC(=O)c1ccco1)C(=O)CCl [Mometasone furoate]
5.36%: M249R
< 0%: all other assays above

COc1ccc(C(C)=O)c(O)c1 [Paeonol]
3.03%: UACC62P
< 0%: all other assays above

CCC(C)SSc1ncc[nH]1 (centres undefined)
13.8%: M229R
< 0%: all other assays above

CC[C@]1(O)C[C@@H]2CN(CCc3c([nH]c4ccccc34)[C@@](C(=O)OC)(c3cc4c(cc3OC)N(C)[C@H]3[C@@](O)(C(=O)OC)[C@H](OC(C)=O)[C@]5(CC)C=CCN6CC[C@]43[C@@H]65)C2)C1 [Vinblastine Sulfate]
52%: M229R
69.3%: M238P
46%: M229P
88.2%: UACC62R
55.4%: M249P
51.9%: M249R
49%: M238R
61.3%: UACC62P

CC(=O)OC[C@H]1O[C@@H](n2ccc(=O)[nH]c2=O)[C@H](OC(C)=O)[C@@H]1OC(C)=O [Uridine triacetate]
6.37%: M249R
2.61%: M229P
< 0%: all other assays above

Nc1cccc2c1CN(C1CCC(=O)NC1=O)C2=O (centres undefined) [Lenalidomide (CC-5013)]
< 0%: all assays above

C[C@H]1[C@@H](O)O[C@@H]2O[C@@]3(C)CC[C@H]4[C@H](C)CC[C@@H]1[C@@]24OO3 [Artenimol]
< 0%: all assays above

C/C(=C\C(=O)Nc1ccccc1C(=O)O)c1ccc2ccccc2c1
< 0%: all assays above

N#C/C(=C(/N)Sc1ccc(N)cc1)c1ccccc1C(F)(F)F
4.2%: M249P
< 0%: all other assays above

O=C(/C=C/c1ccc(/C=C/C(=O)Nc2ccc(C3=NCCN3)cc2)cc1)Nc1ccc(C2=NCCN2)cc1
< 0%: all assays above

C[C@@H]1C/C=C/C=C/C=C/C=C/[C@H](O[C@@H]2O[C@H](C)[C@@H](O)[C@H](N)[C@@H]2O)C[C@@H]2O[C@](O)(C[C@@H](O)C[C@H]3O[C@@H]3/C=C/C(=O)O1)C[C@H](O)[C@H]2C(=O)O [Natamycin]
< 0%: all assays above

CC(C)[C@H](CO)Nc1nc(Nc2cccc(Cl)c2)c2ncn(C(C)C)c2n1 [Purvalanol A]
6.7%: M229R
< 0%: all other assays above

NC(=O)NO [Hydroxyurea]
13.6%: UACC62P
< 0%: all other assays above

C=C(C)[C@@H]1CC[C@]2(C)CC[C@]3(C)[C@H](CC[C@@H]4[C@@]5(C)CC[C@H](O)C(C)(C)[C@@H]5CC[C@]43C)[C@@H]12 [Lupeol]
2.23%: M249R
< 0%: all other assays above

CC[C@H](NC(=O)[C@H](C)NC)C(=O)N1C[C@@H](O)C[C@H]1Cc1c(-c2[nH]c3cc(F)ccc3c2C[C@@H]2C[C@H](O)CN2C(=O)[C@H](CC)NC(=O)[C@H](C)NC)[nH]c2cc(F)ccc12 [Birinapant]
27%: UACC62R
6.87%: M229R
12.7%: M238R
< 0%: all other assays above

COC1CCC(C(=O)c2ccc3nc4c(cc3c2)CCCO4)CC1 (centres undefined)
6.58%: M249R
5.45%: M249P
< 0%: all other assays above

CC(C)=CCC/C(C)=C/CC/C(C)=C/CC/C(C)=C/CC/C(C)=C/CC/C(C)=C/CC/C(C)=C/CC/C(C)=C/CC/C(C)=C/CO [Solanesol]
2.56%: UACC62P
< 0%: all other assays above

Reprinted at random: two entries already listed.
CN1N=C(N)c2cn([C@@H]3O[C@H](COP(=O)(O)O)[C@@H](O)[C@H]3O)c3ncnc1c23 [Triciribine phosphate]
14.3%: M229R
< 0%: all other assays above

O=C(CO)N1CCC(c2n[nH]c(-c3ccc(Cl)cc3)c2-c2ccncn2)CC1
< 0%: all assays above

(continued)

COc1cc2ncn(-c3cc(OCc4ccccc4C(F)(F)F)c(C(N)=O)s3)c2cc1OC
17.5%: M229R
25.7%: M238P
38.6%: UACC62R
1%: M238R
31.6%: UACC62P
6.44%: M249P
17.2%: M249R
22.1%: M229P

CO/N=C(\C(=O)N[C@@H]1C(=O)N2C(C(=O)OCOC(=O)C(C)(C)C)=C(/C=C\c3scnc3C)CS[C@H]12)c1csc(N)n1 [Cefditoren pivoxil]
< 0%: all assays above

Nc1ccn([C@@H]2O[C@H](CO)[C@@H](O)C2(F)F)c(=O)n1 [Gemcitabine hydrochloride]
30.6%: M229R
79.7%: UACC62R
31.1%: M238R
66%: M238P
29.5%: M249P
12.5%: M229P
40%: M249R
55.8%: UACC62P

CN(C)CCOc1ccc(-c2nc(-c3ccncc3)c(-c3ccc4c(c3)CC/C4=N\O)[nH]2)cc1
24.4%: M238P
43.7%: M249P
14.4%: M229P
59.6%: UACC62P
< 0%: all other assays above

CCC(=O)N[C@H]1CC[C@H](C(=O)N(C)c2ccc(-c3nc4ccccc4o3)cc2)C1
< 0%: all assays above

CCCN[C@H]1CCc2nc(N)sc2C1 [Pramipexole hydrochloride]
< 0%: all assays above

O=C(O)c1cc(=O)[nH]c(=O)[nH]1 [Orotic acid]
< 0%: all assays above

O=C(C[S+]([O-])Cc1ccco1)NC/C=C\COc1cc(CN2CCCCC2)ccn1 (centres undefined) [Lafutidine]
< 0%: all assays above

CNC(=O)Nc1ccc(-c2nc(N3CC4CCC(C3)O4)c3cnn(C4CCC5(CC4)OCCO5)c3n2)cc1
50.4%: M238P
48.1%: M238R
62.7%: UACC62P
59.5%: UACC62R
44.8%: M229R
61.1%: M249P
50.6%: M229P
62.1%: M249R

CCOc1cc(C(=O)Nc2ccc(Cl)c(-c3nc4ccccc4[nH]3)c2)cc(OCC)c1OCC
1.58%: UACC62P
< 0%: all other assays above

CN1CCN(CCCN2c3ccccc3Sc3ccc(Cl)cc32)CC1 [Prochlorperazine dimaleate]
< 0%: all assays above

CC(C)(Sc1ccc(CCN(CCCCC2CCCCC2)C(=O)NC2CCCCC2)cc1)C(=O)O
< 0%: all assays above

Cc1nnc(NS(=O)(=O)c2ccc(N)cc2)s1 [Sulfamethizole]
< 0%: all assays above

CN1CCCN=C1/C=C/c1cccs1 [Pyrantel pamoate]
< 0%: all assays above
